Record: PubChem BioAssay AID686943 (Drosophila RNAi Screening Center, 2013)
The deposit covers about 23,000 reagents; below is a random part of those with a known target gene and a result. 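Extra replicates exist only for a retested subset of genes; insulin dose and duration not given; both raised and lowered dpERK matter.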 A plus sign joins genes that one reagent is predicted to hit. The record does not give: the amount of reagent, the time to read-out.

- Test: 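Fly genes whose loss alters ERK activation after insulin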 (primary screen)
- Cell system: Drosophila S2R+ haemocyte-like cells expressing YFP-tagged ERK (Rolled)
- Knock-down reagent: long dsRNA against Drosophila genes
- Challenge: insulin stimulation versus unstimulated cells; dose and duration not given
- Read-out: 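Per-plate z-scores of phospho-ERK immunostaining normalised to YFP-tagged ERK, measured with and without insulin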
- Direction: replicate 1, z-score of dpERK with insulin and replicate 2, z-score of dpERK with insulin: higher = more active ERK per ERK-YFP after insulin; replicate 1, z-score of dpERK under basal conditions: higher = more basal active ERK per ERK-YFP; replicate 1, z-score of ERK-YFP with insulin: higher = more YFP-tagged ERK signal

predicted target	dsRNA	replicate 1, z-score of dpERK with insulin	replicate 2, z-score of dpERK with insulin	replicate 1, z-score of dpERK under basal conditions	replicate 1, z-score of ERK-YFP with insulin
Fur1 (Furin 1)	DRSC13707	1.06	0.14	0.2	-0.07
Fur1 (Furin 1)	DRSC16676	0.94	0.39	-0.03	0
CG15111	DRSC21467	-0.1	0.56	-0.28	0.89
CG11131	DRSC11636	1.08	1.59	3.49	-1.07
CG11131	DRSC21736	-0.49	-0.86	-0.53	0.17
CG30265	DRSC21592	0.34	0.11	-0.85	-1.83
Cyp6g2 (Cytochrome P450 6g2)	DRSC07387	-0.03	0.57	-0.4	0.29
CG33523	DRSC09814	-0.02	-0.55	-1.12	0.39
CG33523	DRSC22155	-0.6	0.33	-0.07	0.57
Tap42 (Two A-associated protein of 42kDa)	DRSC02967	0.06	-0.26	0.38	0.59
Hrb27C (Heterogeneous nuclear ribonucleoprotein at 27C)	DRSC03347	-1.26	-1.53	0.23	1.44
sns (sticks and stones)	DRSC06423	-5.19	-4.58	-1.38	-4.43
sns (sticks and stones)	DRSC07687	1.74	0.92	-3.15	-3.56
sns (sticks and stones)	DRSC07688	-0.11	-0.02	0.73	1.17
sns (sticks and stones)	DRSC07689	1.24	0.57	-1.36	-0.12
sns (sticks and stones)	DRSC07691	-0.45	0.13	0.19	0.43
sns (sticks and stones)	DRSC07692	-0.88	-1.57	-1.84	0.19
CG31832	DRSC22067	-0.25	0.23	-0.65	0.04
CG11425	DRSC11657	0.25	0.22	1.04	-0.3
CG14402	DRSC02386	-0.48	0.23	1.45	1.01
CG30036	DRSC21334	0.2	-0.49	-0.91	0.66
CG32982	DRSC01059	-1.24	-2.6	-3.43	2.46
CG32982	DRSC02677	-0.1	-0.08	-1.19	-0.25
CG32982	DRSC03268	0.49	0.12	0.2	-0.09
CG32982	DRSC03269	-0.26	0.05	0.87	-0.5
CG32982	DRSC21912	0.15	0.19	-0.07	1.85
CG15602	DRSC19671	-0.23	0.08	-0.47	-0.29
CG11125	DRSC06042	-0.23	0.13	-0.2	0.27
TwdlM (TweedleM)	DRSC15810	0.28	-1.37	-0.6	-0.48
CG31533	DRSC13018	0.35	0.45	-0.09	0.03
CG10761	DRSC17753	0.18	0.68	0.12	0.25
CG5984	DRSC15930	0.24	0.24	3.39	0.15
Pk34A (Protein kinase at 34A)	DRSC03398	-0.26	0	0.12	0.36
CG30151	DRSC05888	-0.59	0.04	0.1	0.81
att-ORFB + DPCoAC	DRSC15556	-0.14	1.77	0.6	0.57
egr (eiger)	DRSC06233	0.71	0.69	0.84	0.22
CG31445	DRSC14443	0.34	0.7	0.08	0.46
CG12003	DRSC08214	-0.06	-0.01	-0.98	-0.23
a6	DRSC18733	-0.45	-0.47	-0.57	0.28
CG6006	DRSC13137	0.38	-0.63	0.44	0.58
CG6006	DRSC15946	-0.17	0.06	0.57	-0.47
Trs23 (TRAPP subunit 23)	DRSC03190	0.78	2.42	0.84	1.26
side-VIII (sidestep VIII)	DRSC05880	0.13	1.01	0.24	-0.01
side-VIII (sidestep VIII)	DRSC05883	-1.64	0.1	-1.91	-2.47
side-VIII (sidestep VIII)	DRSC06157	-0.01	-0.59	0.12	0
Cyp316a1 (Cytochrome P450 316a1)	DRSC11130	-0.32	0.36		0.17
ss (spineless)	DRSC17069	0.6	0.17	-0.46	-0.36

Ordered by “replicate 1, z-score of dpERK under basal conditions” (high to low): some entries from above
predicted target	dsRNA	replicate 1, z-score of dpERK with insulin	replicate 2, z-score of dpERK with insulin	replicate 1, z-score of dpERK under basal conditions	replicate 1, z-score of ERK-YFP with insulin
CG14402	DRSC02386	-0.48	0.23	1.45	1.01
CG11425	DRSC11657	0.25	0.22	1.04	-0.3
sns (sticks and stones)	DRSC07688	-0.11	-0.02	0.73	1.17
Hrb27C (Heterogeneous nuclear ribonucleoprotein at 27C)	DRSC03347	-1.26	-1.53	0.23	1.44
sns (sticks and stones)	DRSC07691	-0.45	0.13	0.19	0.43
CG31832	DRSC22067	-0.25	0.23	-0.65	0.04
CG30036	DRSC21334	0.2	-0.49	-0.91	0.66
sns (sticks and stones)	DRSC07689	1.24	0.57	-1.36	-0.12
sns (sticks and stones)	DRSC06423	-5.19	-4.58	-1.38	-4.43
sns (sticks and stones)	DRSC07692	-0.88	-1.57	-1.84	0.19
sns (sticks and stones)	DRSC07687	1.74	0.92	-3.15	-3.56

Continued:
predicted target	dsRNA	replicate 1, z-score of dpERK with insulin	replicate 2, z-score of dpERK with insulin	replicate 1, z-score of dpERK under basal conditions	replicate 1, z-score of ERK-YFP with insulin
Mst27D (Male specific transcript 27D)	DRSC00967	1.38	-0.67	3.11	-1.03
CG33500	DRSC09115	-2.21	-1.91	0.06	-0.99
Mpi (Mannose phosphate isomerase)	DRSC16417	-0.85	-0.59	0.03	0.07
sbm (sobremesa)	DRSC20185	0.34	-0.08	0.83	0.35
tow (target of wingless)	DRSC10192	-4.5	-2.99	-1.52	-4.41
Ncoa6 (Nuclear receptor coactivator 6)	DRSC02353	-7.48	-5.61	-2.5	-6.99
RpS14b (Ribosomal protein S14b)	DRSC18711	2.05	-1.53	1.25	-4.24
spn-E (spindle E)	DRSC17064	0.08	0.38	-0.42	0.74
CanB2 (Calcineurin B2)	DRSC07355	0.26	-0.35	-0.72	-0.48
Hml (Hemolectin)	DRSC11183	-0.15	0.24	0.07	0.07
Nup107 (Nucleoporin 107kD)	DRSC01999	-0.97	0	-2.49	-5.23
Gr22a (Gustatory receptor 22a)	DRSC22283	-0.14	0.52	0.31	-0.2
CG11151	DRSC19387	-0.42	-0.46	3.32	1.55
csul (capsuleen)	DRSC07599	-0.23	0.38	-0.27	0.25
LeuRS-m (Leucyl-tRNA synthetase, mitochondrial)	DRSC08595	0.54	1.09	0.58	0.23
CG12994	DRSC19192	-0.12	-0.46	0.31	0.41
CG12994	DRSC19514	-1.36	-2.6	-1.6	2.45
AstC-R1 (Allatostatin C receptor 1)	DRSC10799	0.28	0.03	-1.22	0.21
wap (wings apart)	DRSC20626	-0.94	-0.03	1.09	0.72
Ance-3	DRSC02648	0.36	0.2	0.96	0.64
Ance-3	DRSC02649	-0.27	-0.07	-1.56	0.41
CR43999 (retired record)	DRSC14605	0.63	1.58	0.18	0.58
dsf (dissatisfaction)	DRSC03524	-1.94	-2.06	-0.56	-0.16
CG9646	DRSC07342	-0.1	0.75	0.48	0.07
CG11384	DRSC18628	-0.43	-0.69	-1.06	-0.2
Ote (Otefin)	DRSC07498	0.16	-0.33	0.1	-0.3
